This continues a long series; more values of the same kind are listed elsewhere.
Experiment: Particle size distribution by laser diffraction (Malvern Panalytical Mastersizer 3000, Fraunhofer)
Assay type: physicochemical
Protocol: The particle size distribution was measured by laser diffraction using the Malvern Panalytical Mastersizer 3000.
The samples are again taken from example 1.6 (probe 1) and example 1.5 (probe 2), the same as used in example 4.
The sample to be analyzed is dispersed in 1 drop of Tween 80 the sample is processed according to ISO13320.
Laser diffraction is an often-used method for determination the particle size of dispersed solid materials. A widened laser beam illuminates a cuvette which contains part of the particles. By diffraction on the particles a characteristic pattern can be mapped on the detector. The resulting diffraction image is the additive overlaying of diffraction images of all particles.
Besides the mentioned detector two additional detectors are mounted in order to detect diffraction light in forward direction (FA1,9), in wide angle (LA1,2) and in back direction (BS1,2). The turbidity of the sample is measured by an extinction sensor. This is necessary to ensure a low particle concentration which is necessary to avoid wrong results by multiple diffraction of light at several particles.
The cuvette used was a wet unit where the suspension is pumped in a closed circuit with a dispersing unit that ensures a separation of single particles by shear forces.
The measurement range of the Malvern 3000 covers a particle size from 1 mm (2 mm) down to 20 nm
The calculation of the particle size distribution from the diffraction patterns was done on basis of theory of Fraunhofer.
This assumption is valid for particle sizes of 10 to 50 μm and above. For smaller particles the light scattering of the particle itself due to optical transparency must be considered which is done in the Mie-theory (not used for our probes). Precondition of the application of the Mie-theory is the knowledge of the refractive and absorption index of the dispersed solids.
Q3 is the cumulative volume distribution, e.g. D50=Q(50%) indicates 50% of the volume part of the sample is smaller than particle size of 50 μm.
The particle size is expressed as an equivalent diameter used in the method recommended by the Malvern Analysis Program and as described in ISO13320.

With `C[C@@H]1OC(=O)NN=C1c1ccc(-c2ccc(F)cc2)c(C(F)(F)F)c1` [polymorph A, (6S)-5-[4′-Fluoro-2-(trifluoromethyl)biphenyl-4-yl]-6-methyl-3,6-dihydro-2H-1,3,4-oxadiazin-2-one] the “Cumulative volume distribution Q” value (particle size D 5.92 μm, 300 s US, listed as Probe 1) was 14%, the “Cumulative volume distribution Q” value (particle size D 5.92 μm, without US, listed as Probe 1) was 1.37% and the “Cumulative volume distribution Q” value (particle size D 6.72 μm, 300 s US, listed as Probe 1) was 15.43%. The “Cumulative volume distribution Q” value (particle size D 6.72 μm, without US, listed as Probe 1) was 1.56%, the “Cumulative volume distribution Q” value (particle size D 7.64 μm, 300 s US, listed as Probe 1) was 16.9% and the “Cumulative volume distribution Q” value (particle size D 7.64 μm, without US, listed as Probe 1) was 1.76%. For the same molecule, the “Cumulative volume distribution Q” value (particle size D 8.68 μm, 300 s US, listed as Probe 1) was 18.38%, the “Cumulative volume distribution Q” value (particle size D 8.68 μm, without US, listed as Probe 1) was 1.97% and the “Cumulative volume distribution Q” value (particle size D 9.86 μm, 300 s US, listed as Probe 1) was 19.88%. The “Cumulative volume distribution Q” value (particle size D 9.86 μm, without US, listed as Probe 1) was 2.17%, the “Cumulative volume distribution Q” value (particle size D 11.2 μm, 300 s US, listed as Probe 1) was 21.41% and the “Cumulative volume distribution Q” value (particle size D 11.2 μm, without US, listed as Probe 1) was 2.38%. The “Cumulative volume distribution Q” value (particle size D 12.7 μm, 300 s US, listed as Probe 1) was 22.99%, the “Cumulative volume distribution Q” value (particle size D 12.7 μm, without US, listed as Probe 1) was 2.6% and the “Cumulative volume distribution Q” value (particle size D 14.5 μm, 300 s US, listed as Probe 1) was 24.65%. For the same molecule, the “Cumulative volume distribution Q” value (particle size D 14.5 μm, without US, listed as Probe 1) was 2.81%, the “Cumulative volume distribution Q” value (particle size D 16.4 μm, 300 s US, listed as Probe 1) was 26.43% and the “Cumulative volume distribution Q” value (particle size D 16.4 μm, without US, listed as Probe 1) was 3.03%. For the same molecule, the “Cumulative volume distribution Q” value (particle size D 18.7 μm, 300 s US, listed as Probe 1) was 28.38%, the “Cumulative volume distribution Q” value (particle size D 18.7 μm, without US, listed as Probe 1) was 3.24% and the “Cumulative volume distribution Q” value (particle size D 21.2 μm, 300 s US, listed as Probe 1) was 30.55%. For the same molecule, the “Cumulative volume distribution Q” value (particle size D 21.2 μm, without US, listed as Probe 1) was 3.45%, the “Cumulative volume distribution Q” value (particle size D 24.1 μm, 300 s US, listed as Probe 1) was 33.01% and the “Cumulative volume distribution Q” value (particle size D 24.1 μm, without US, listed as Probe 1) was 3.66%. For the same molecule, the “Cumulative volume distribution Q” value (particle size D 27.4 μm, 300 s US, listed as Probe 1) was 35.82%, the “Cumulative volume distribution Q” value (particle size D 27.4 μm, without US, listed as Probe 1) was 3.86% and the “Cumulative volume distribution Q” value (particle size D 31.1 μm, 300 s US, listed as Probe 1) was 39.04%. The “Cumulative volume distribution Q” value (particle size D 31.1 μm, without US, listed as Probe 1) was 4.09%, the “Cumulative volume distribution Q” value (particle size D 35.3 μm, 300 s US, listed as Probe 1) was 42.69% and the “Cumulative volume distribution Q” value (particle size D 35.3 μm, without US, listed as Probe 1) was 4.33%. For the same molecule, the “Cumulative volume distribution Q” value (particle size D 40.1 μm, 300 s US, listed as Probe 1) was 46.79%, the “Cumulative volume distribution Q” value (particle size D 40.1 μm, without US, listed as Probe 1) was 4.62% and the “Cumulative volume distribution Q” value (particle size D 45.6 μm, 300 s US, listed as Probe 1) was 51.31%. For the same molecule, the “Cumulative volume distribution Q” value (particle size D 45.6 μm, without US, listed as Probe 1) was 4.97%, the “Cumulative volume distribution Q” value (particle size D 51.8 μm, 300 s US, listed as Probe 1) was 56.19% and the “Cumulative volume distribution Q” value (particle size D 51.8 μm, without US, listed as Probe 1) was 5.38%. For the same molecule, the “Cumulative volume distribution Q” value (particle size D 58.9 μm, 300 s US, listed as Probe 1) was 61.32%, the “Cumulative volume distribution Q” value (particle size D 58.9 μm, without US, listed as Probe 1) was 5.84% and the “Cumulative volume distribution Q” value (particle size D 66.9 μm, 300 s US, listed as Probe 1) was 66.6%. For the same molecule, the “Cumulative volume distribution Q” value (particle size D 66.9 μm, without US, listed as Probe 1) was 6.34%, the “Cumulative volume distribution Q” value (particle size D 76 μm, 300 s US, listed as Probe 1) was 71.86% and the “Cumulative volume distribution Q” value (particle size D 76 μm, without US, listed as Probe 1) was 6.84%. For the same molecule, the “Cumulative volume distribution Q” value (particle size D 86.4 μm, 300 s US, listed as Probe 1) was 76.95%, the “Cumulative volume distribution Q” value (particle size D 86.4 μm, without US, listed as Probe 1) was 7.31% and the “Cumulative volume distribution Q” value (particle size D 98.1 μm, 300 s US, listed as Probe 1) was 81.73%. For the same molecule, the “Cumulative volume distribution Q” value (particle size D 98.1 μm, without US, listed as Probe 1) was 7.71%, the “Cumulative volume distribution Q” value (particle size D 111 μm, 300 s US, listed as Probe 1) was 86.06% and the “Cumulative volume distribution Q” value (particle size D 111 μm, without US, listed as Probe 1) was 8.06%. For the same molecule, the “Cumulative volume distribution Q” value (particle size D 127 μm, 300 s US, listed as Probe 1) was 89.81%, the “Cumulative volume distribution Q” value (particle size D 127 μm, without US, listed as Probe 1) was 8.42% and the “Cumulative volume distribution Q” value (particle size D 144 μm, 300 s US, listed as Probe 1) was 92.92%. The “Cumulative volume distribution Q” value (particle size D 144 μm, without US, listed as Probe 1) was 8.94%, the “Cumulative volume distribution Q” value (particle size D 163 μm, 300 s US, listed as Probe 1) was 95.36% and the “Cumulative volume distribution Q” value (particle size D 163 μm, without US, listed as Probe 1) was 9.85%. The “Cumulative volume distribution Q” value (particle size D 186 μm, 300 s US, listed as Probe 1) was 97.15%, the “Cumulative volume distribution Q” value (particle size D 186 μm, without US, listed as Probe 1) was 11.47% and the “Cumulative volume distribution Q” value (particle size D 211 μm, 300 s US, listed as Probe 1) was 98.37%. The “Cumulative volume distribution Q” value (particle size D 211 μm, without US, listed as Probe 1) was 14.12%, the “Cumulative volume distribution Q” value (particle size D 240 μm, 300 s US, listed as Probe 1) was 99.12% and the “Cumulative volume distribution Q” value (particle size D 240 μm, without US, listed as Probe 1) was 18.13%. The “Cumulative volume distribution Q” value (particle size D 272 μm, 300 s US, listed as Probe 1) was 99.54%, the “Cumulative volume distribution Q” value (particle size D 272 μm, without US, listed as Probe 1) was 23.71% and the “Cumulative volume distribution Q” value (particle size D 310 μm, 300 s US, listed as Probe 1) was 99.76%. The “Cumulative volume distribution Q” value (particle size D 310 μm, without US, listed as Probe 1) was 30.88%, the “Cumulative volume distribution Q” value (particle size D 352 μm, 300 s US, listed as Probe 1) was 99.87% and the “Cumulative volume distribution Q” value (particle size D 352 μm, without US, listed as Probe 1) was 39.48%. The “Cumulative volume distribution Q” value (particle size D 400 μm, 300 s US, listed as Probe 1) was 99.94%, the “Cumulative volume distribution Q” value (particle size D 400 μm, without US, listed as Probe 1) was 49.13% and the “Cumulative volume distribution Q” value (particle size D 454 μm, 300 s US, listed as Probe 1) was 100%. The “Cumulative volume distribution Q” value (particle size D 454 μm, without US, listed as Probe 1) was 59.27%, the “Cumulative volume distribution Q” value (particle size D 516 μm, 300 s US, listed as Probe 1) was 100% and the “Cumulative volume distribution Q” value (particle size D 516 μm, without US, listed as Probe 1) was 69.25%. For the same molecule, the “Cumulative volume distribution Q” value (particle size D 586 μm, 300 s US) was 100%, the “Cumulative volume distribution Q” value (particle size D 586 μm, without US, listed as Probe 1) was 78.43% and the “Cumulative volume distribution Q” value (particle size D 666 μm, 300 s US) was 100%. For the same molecule, the “Cumulative volume distribution Q” value (particle size D 666 μm, without US, listed as Probe 1) was 86.25%.
